# Assay results as given in the supplement of paper PMC4635364.
# Counter-ions that a name gives are not always drawn. The list shows a part of the results. This data set is noisy: repeats of one test often differ as much as different tests do.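 Human fetal ventral-midbrain neural progenitor line ReNCell VM, differentiated without mitogens. Images stained for doublecortin (early neurons) or tyrosine hydroxylase (dopaminergic neurons) were scored by blinded raters against untreated wells (0 = no change). Repeats and both raters were averaged, and compounds averaging 2 or higher were picked as hits for retesting.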
# How the values were obtained:
# [1] = tested on: ReNCell VM; assay: neuronal differentiation score (DCX+ cell fraction vs untreated, manual image score) (score (-3 to 3)); higher = more neuronal differentiation; settings: 2 uM, 2 weeks
# [2] = tested on: ReNCell VM; assay: dopaminergic neuron differentiation score (TH+ cell fraction vs untreated, manual image score) (score (0 to 3)); higher = more TH+ dopaminergic neuron differentiation; settings: 2 uM, 4 weeks, BDNF 10 ng/ml + GDNF 10 ng/ml
structure (smiles),measurement,setting,value
C[C@H](N)[C@H](O)c1ccc(O)c(O)c1,neuronal differentiation score,[1]; library: Spectrum,inactive: 1
same,dopaminergic neuron differentiation score,[2]; library: Spectrum,inactive: 0
Cc1[nH]c2ccccc2c1CN(C)C,neuronal differentiation score,[1]; library: Spectrum,inactive: 0
same,dopaminergic neuron differentiation score,[2]; library: Spectrum,inactive: 1
CCC(C)C(=O)OC1CC2(C)C(c3ccoc3)OC(=O)CC23OC2(C)OC34C(OC(=O)C(C)C)C3(O)C(OC(=O)C5(C)OC5C)C5(C)CC3(O)C(C)(C5CC(=O)OC)C14O2 (stereo not drawn),neuronal differentiation score,[1]; library: Spectrum,inactive: 0
same,dopaminergic neuron differentiation score,[2]; library: Spectrum,inactive: 0
N[C@@H](Cc1ccc(N(CCCl)CCCl)cc1)C(=O)O,neuronal differentiation score,[1]; library: Spectrum,inactive: 0
same,dopaminergic neuron differentiation score,[2]; library: Spectrum,inactive: 0
N[C@@H](CCl)C(=O)O [beta-Chloro-L-alanine hydrochloride],neuronal differentiation score,[1]; library: LOPAC,inactive: 0
same,dopaminergic neuron differentiation score,[2]; library: LOPAC,inactive: 0
CCOC(=O)c1ncc2[nH]c3ccc(OCc4ccccc4)cc3c2c1COC,neuronal differentiation score,[1]; library: Tocriscreen,inactive: 0
same,dopaminergic neuron differentiation score,[2]; library: Tocriscreen,inactive: 0
O=C(O[C@H]1C[C@H]2CC[C@@H](C1)[N+]21CCCC1)C(O)(c1ccccc1)c1ccccc1,neuronal differentiation score,[1]; library: Spectrum,inactive: 0
same,dopaminergic neuron differentiation score,[2]; library: Spectrum,inactive: 0
Clc1ccc(C(OCCN2CCCCC2)c2ccccc2)cc1 (stereo not drawn) [Cloperastine hydrochloride],neuronal differentiation score,[1]; library: Prestwick,inactive: 0
same,dopaminergic neuron differentiation score,[2]; library: Prestwick,inactive: 0
CCCCCCCCCCCCCCCC[n+]1ccccc1,neuronal differentiation score,[1]; library: Spectrum,inactive: 0
same,dopaminergic neuron differentiation score,[2]; library: Spectrum,inactive: 0
CC[C@@H](C)C(=O)O[C@H]1[C@H](O)[C@H]2[C@@H](CN3C[C@@H](C)CC[C@H]3[C@@]2(C)O)[C@@H]2C[C@]34O[C@]5(O)[C@@H](OC(=O)[C@@](C)(O)CC)CC[C@@]3(C)[C@@H]5[C@@H](OC(C)=O)[C@@H](OC(C)=O)[C@H]4[C@@]21O,neuronal differentiation score,[1]; library: Spectrum,inactive: 0
same,dopaminergic neuron differentiation score,[2]; library: Spectrum,inactive: 0
C(=C\c1ccccc1)/CN1CCN(CCOC(c2ccccc2)c2ccccc2)CC1,neuronal differentiation score,[1]; library: Tocriscreen,inactive: 0
same,dopaminergic neuron differentiation score,[2]; library: Tocriscreen,inactive: 0
N[C@H](C(=O)O)c1cc(O)no1 [Ibotenic acid],neuronal differentiation score,[1]; library: Tocriscreen,inactive: 0
same,dopaminergic neuron differentiation score,[2]; library: Tocriscreen,inactive: 0
C[N+]12CC[C@@]34c5ccccc5N5C(=O)C[C@@H]6OCC=C(C1)[C@H](C[C@@H]32)[C@@H]6[C@H]54 (stereo partly drawn),neuronal differentiation score,[1]; library: Spectrum,inactive: 0
same,dopaminergic neuron differentiation score,[2]; library: Spectrum,inactive: 0
CC(C)CC(N(C)C)C1(c2ccc(Cl)cc2)CCC1 (stereo not drawn) [Sibutramine HCl],neuronal differentiation score,[1]; library: Prestwick,inactive: 0
same,dopaminergic neuron differentiation score,[2]; library: Prestwick,inactive: 0
Oc1ccc2c3c1O[C@H]1c4oc5ccccc5c4C[C@@]4(O)[C@@H](C2)N(CC2CC2)CC[C@]314 [Naltriben methanesulfonate],neuronal differentiation score,[1]; library: LOPAC,inactive: 0
same,dopaminergic neuron differentiation score,[2]; library: LOPAC,inactive: 0
CC1OC(OC2/C=C/C=C/C=C/C=C/CC/C=C/C=C/[C@H](C)[C@@H](O)[C@@H](C)[C@H](C)OC(=O)CC(O)CC(O)CC(O)CCC(O)C(O)C[C@]3(O)CC(O)C(C(=O)O)C(C2)O3)C(O)C(N)C1O (stereo partly drawn) [Nystatine],neuronal differentiation score,[1]; library: Prestwick,inactive: 0
same,dopaminergic neuron differentiation score,[2]; library: Prestwick,inactive: 0
CCCN[C@@H]1CCc2c(OC)cccc2[C@@H]1C [(+)-AJ 76 hydrochloride],neuronal differentiation score,[1]; library: Tocriscreen,inactive: 0
same,dopaminergic neuron differentiation score,[2]; library: Tocriscreen,inactive: 0
COc1cccc2c1cc([N+](=O)[O-])c1c(C(=O)O)cc3c(c12)OCO3 [Aristolochic Acid],neuronal differentiation score,[1]; library: Phytochemical,inactive: 0
same,dopaminergic neuron differentiation score,[2]; library: Phytochemical,inactive: 0
CNCCc1cnc[nH]1 [N à-Methylhistamine dihydrochloride],neuronal differentiation score,[1]; library: Tocriscreen,inactive: 0
same,dopaminergic neuron differentiation score,[2]; library: Tocriscreen,inactive: 0
CC(C)C[C@H](CN)CC(=O)O,neuronal differentiation score,[1]; library: Spectrum,inactive: 0
same,dopaminergic neuron differentiation score,[2]; library: Spectrum,inactive: 0
CN1CCCCC1c1ccc(-c2cccnc2)nc1 (stereo not drawn) [anabasamine],neuronal differentiation score,[1]; library: Natural,inactive: 0
same,dopaminergic neuron differentiation score,[2]; library: Natural,inactive: 0
NC(=O)c1cc([N+](=O)[O-])cc([N+](=O)[O-])c1,neuronal differentiation score,[1]; library: Spectrum,inactive: 0
same,dopaminergic neuron differentiation score,[2]; library: Spectrum,inactive: 0
CN1CCc2cc3c(c4c2C1Cc1ccccc1-4)OCO3 (stereo not drawn) [Remerine HCl],neuronal differentiation score,[1]; library: Phytochemical,inactive: 0
same,dopaminergic neuron differentiation score,[2]; library: Phytochemical,inactive: 0
CC(=O)OC1CN2CCC1CC2 (stereo not drawn) [Aceclidine Hydrochloride],neuronal differentiation score,[1]; library: Prestwick,inactive: 0
same,dopaminergic neuron differentiation score,[2]; library: Prestwick,inactive: 0
COc1cc([C@@H]2c3cc4c(cc3[C@H](OC(C)=O)[C@H]3COC(=O)[C@@H]23)OCO4)cc(OC)c1OC,neuronal differentiation score,[1]; library: Spectrum,inactive: 0
same,dopaminergic neuron differentiation score,[2]; library: Spectrum,inactive: 0
O=C1Nc2ccccc2C2(CCN(CCc3ccc(C(F)(F)F)cc3)CC2)O1,neuronal differentiation score,[1]; library: Tocriscreen,inactive: 0
same,dopaminergic neuron differentiation score,[2]; library: Tocriscreen,inactive: 0
COc1ccc2c(c1OC)C(=O)O[C@@H]2[C@H]1c2cc3c(cc2CCN1C)OCO3,neuronal differentiation score,[1]; library: Spectrum,inactive: 0
same,dopaminergic neuron differentiation score,[2]; library: Spectrum,inactive: 1
CN1c2ccccc2C(NCCCCCCC(=O)O)c2ccc(Cl)cc2S1(=O)=O (stereo not drawn) [Tianeptine],neuronal differentiation score,[1]; library: Tocriscreen,inactive: 0
same,dopaminergic neuron differentiation score,[2]; library: Tocriscreen,inactive: 0
C1=C2CCCN[C@H]2[C@@H]2C[C@H]1[C@H]1CCCCN1C2 [aloperine],neuronal differentiation score,[1]; library: Natural,inactive: 0
same,dopaminergic neuron differentiation score,[2]; library: Natural,inactive: 0
c1ccc(/N=N/c2ccccc2)cc1,neuronal differentiation score,[1]; library: Spectrum,inactive: 0
same,dopaminergic neuron differentiation score,[2]; library: Spectrum,inactive: 0
OC1CCCCC1N1CCC(c2ccccc2)CC1 (stereo not drawn),neuronal differentiation score,[1]; library: Spectrum,inactive: 0
same,dopaminergic neuron differentiation score,[2]; library: Spectrum,inactive: 0
CC(Cc1ccccc1)NCCC(c1ccccc1)c1ccccc1 (stereo not drawn) [Prenylamine lactate],neuronal differentiation score,[1]; library: Prestwick,inactive: 0
same,dopaminergic neuron differentiation score,[2]; library: Prestwick,inactive: 0
COc1cc(OC)c(OC)cc1C=O,neuronal differentiation score,[1]; library: Spectrum,inactive: 0
same,dopaminergic neuron differentiation score,[2]; library: Spectrum,inactive: 0
CCCOc1ccc2[nH]cc(C3=CCNCC3)c2n1,neuronal differentiation score,[1]; library: Tocriscreen,inactive: 0
same,dopaminergic neuron differentiation score,[2]; library: Tocriscreen,inactive: 0

# 4 records drawn at random from the list so far:
structure (smiles),measurement,setting,value
Clc1ccc(C(OCCN2CCCCC2)c2ccccc2)cc1 (stereo not drawn) [Cloperastine hydrochloride],neuronal differentiation score,[1]; library: Prestwick,inactive: 0
CNCCc1cnc[nH]1 [N à-Methylhistamine dihydrochloride],neuronal differentiation score,[1]; library: Tocriscreen,inactive: 0
O=C1Nc2ccccc2C2(CCN(CCc3ccc(C(F)(F)F)cc3)CC2)O1,dopaminergic neuron differentiation score,[2]; library: Tocriscreen,inactive: 0
Clc1ccc(C(OCCN2CCCCC2)c2ccccc2)cc1 (stereo not drawn) [Cloperastine hydrochloride],dopaminergic neuron differentiation score,[2]; library: Prestwick,inactive: 0
